The values that follow come from patent publication US11684306B2, “Stable water isotope labeling and magnetic resonance imaging for visualization of the presence of and prediction of the likelihood of occurence of rapidly dividing cells” (THE UNITED STATES OF AMERICA, AS REPRESENTED BY THE …, priority 2016, dated 2023).

Each structure is given as a SMILES string. Entries after “also recorded” stand apart in the source; their conditions may differ.

Data set [1] deals with mouse tumor cells. In words: In vitro deuterated water labeling of cultured mouse tumor cells. Format: cell-based.
The subject of data set [2] is cGVHD-affected mice. The experiment in a line: Deuterium chemical shift imaging (CSI, dMRI) of HSCT recipient mice after 2H2O labeling. Format: in vivo, mouse. The conditions noted are these: day +28, 21 days of 2H2O labeling to TBW of ~5%; normalized to 5% 2H2O phantom.

On to `[2H]O[2H]` [deuterated water], for which the dA deuterium enrichment in data set [1] (cultured mouse tumor cells labeled in vitro with deuterated water) is reported as around 50%. Further, the spectroscopic deuterium signal entry in data set [1] (mouse tumor cells labeled in vitro during culture, versus un-enriched water phantom) is “clear spectroscopic deuterium signal”. Moreover, in data set [2], the “2H CSI signal in liver, cGVHD-affected (allogeneic) mice versus syngeneic controls” value is reported as “significantly greater; also recorded: significantly higher” and the “2H CSI signal in quadriceps muscle (tissue not targeted by cGVHD), allogeneic versus syngeneic” value is “no difference; also recorded: did not differ”.
